Where two headings read alike, the source gives them in different places. Structures were worked out from names or drawings and are uncertain.
Columns and labels:
A431 = A431 CellTiter-Glo; conditions: read-out: A431 CTG IC50, 72 h compound incubation
Protocol: (§1) 2. Measurement of Cellular Activity
(§2) The CellTiter-Glo Luminescent Cell Viability Assay (Promega) is a homogeneous method of determining the number of viable cells in culture. It is based on quantification of ATP, indicating the presence of metabolically active cells. Cells are seeded on day 1 at cell numbers that assure assay linearity and optimal signal intensity. After incubation for 24 h in humidified chambers at 37° C. and 5% CO2, compounds in DMSO are added at different concentrations. Cells are further incubated for 72 h at 37° C. and 5% CO2. Cells treated with the compound vehicle DMSO are used as positive controls and cells treated with 10 μM Staurosporine serve as negative controls. At day 5 the CellTiter Glo Reagent is prepared according to the instructions of the kit (Promega Inc.): Reagent is mixed 1:1 with cell culture medium. Thereon, mixture and assay plates are equilibrated at room temperature for 20 min. […] Following incubation the luminescence is recorded on a Victor microplate reader (Perkin Elmer) using a 200 ms integration time. The data is then analyzed with Excel using the XLFIT Plugin (dose response Fit 205) for IC50-determination. As quality control the Z′-factor is calculated from 16 positive and negative control values. […]
(§3) Inhibition is indicated as […] [nM] (“−”=not measured). […]

The chains behind the UniProt entries cited, without tags or fusion partners. A line that says so, or that is headed by a name, gives the form on record, which may keep a tag or linker. Residues count along the entry.
UniProt P04626, with tags, fused parts or gaps DUP772-775: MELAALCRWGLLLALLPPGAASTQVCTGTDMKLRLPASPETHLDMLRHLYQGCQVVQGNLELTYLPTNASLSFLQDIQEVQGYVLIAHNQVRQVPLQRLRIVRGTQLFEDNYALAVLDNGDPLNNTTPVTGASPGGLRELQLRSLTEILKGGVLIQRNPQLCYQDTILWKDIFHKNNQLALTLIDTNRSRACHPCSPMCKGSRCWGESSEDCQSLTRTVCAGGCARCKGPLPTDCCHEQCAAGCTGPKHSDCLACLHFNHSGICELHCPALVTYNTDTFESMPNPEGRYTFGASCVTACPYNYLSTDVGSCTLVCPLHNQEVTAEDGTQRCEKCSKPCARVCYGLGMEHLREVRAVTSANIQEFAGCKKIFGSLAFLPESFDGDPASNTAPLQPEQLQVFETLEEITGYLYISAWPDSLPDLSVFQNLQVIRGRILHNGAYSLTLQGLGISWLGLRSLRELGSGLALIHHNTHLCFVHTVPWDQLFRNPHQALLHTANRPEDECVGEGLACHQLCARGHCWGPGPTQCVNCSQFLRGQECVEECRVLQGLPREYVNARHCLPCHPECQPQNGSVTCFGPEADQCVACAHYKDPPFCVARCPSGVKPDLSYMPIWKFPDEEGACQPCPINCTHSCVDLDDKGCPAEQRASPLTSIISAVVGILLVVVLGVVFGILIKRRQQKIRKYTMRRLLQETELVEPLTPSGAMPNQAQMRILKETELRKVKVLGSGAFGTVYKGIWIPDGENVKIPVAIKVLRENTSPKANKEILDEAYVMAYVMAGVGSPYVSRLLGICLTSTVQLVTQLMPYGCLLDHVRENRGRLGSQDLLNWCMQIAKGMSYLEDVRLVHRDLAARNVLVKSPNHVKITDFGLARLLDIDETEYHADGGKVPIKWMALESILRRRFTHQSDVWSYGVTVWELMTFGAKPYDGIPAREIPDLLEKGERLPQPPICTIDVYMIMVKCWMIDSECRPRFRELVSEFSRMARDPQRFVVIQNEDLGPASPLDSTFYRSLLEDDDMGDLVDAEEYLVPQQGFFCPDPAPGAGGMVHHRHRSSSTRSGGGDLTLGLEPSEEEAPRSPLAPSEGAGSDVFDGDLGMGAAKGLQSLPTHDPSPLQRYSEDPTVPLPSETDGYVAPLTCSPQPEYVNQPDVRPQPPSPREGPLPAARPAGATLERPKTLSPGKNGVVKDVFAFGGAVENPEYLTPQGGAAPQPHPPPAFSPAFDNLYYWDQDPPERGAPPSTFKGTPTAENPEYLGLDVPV
UniProt P04626, with tags, fused parts or gaps INS775YVMA limits assumed: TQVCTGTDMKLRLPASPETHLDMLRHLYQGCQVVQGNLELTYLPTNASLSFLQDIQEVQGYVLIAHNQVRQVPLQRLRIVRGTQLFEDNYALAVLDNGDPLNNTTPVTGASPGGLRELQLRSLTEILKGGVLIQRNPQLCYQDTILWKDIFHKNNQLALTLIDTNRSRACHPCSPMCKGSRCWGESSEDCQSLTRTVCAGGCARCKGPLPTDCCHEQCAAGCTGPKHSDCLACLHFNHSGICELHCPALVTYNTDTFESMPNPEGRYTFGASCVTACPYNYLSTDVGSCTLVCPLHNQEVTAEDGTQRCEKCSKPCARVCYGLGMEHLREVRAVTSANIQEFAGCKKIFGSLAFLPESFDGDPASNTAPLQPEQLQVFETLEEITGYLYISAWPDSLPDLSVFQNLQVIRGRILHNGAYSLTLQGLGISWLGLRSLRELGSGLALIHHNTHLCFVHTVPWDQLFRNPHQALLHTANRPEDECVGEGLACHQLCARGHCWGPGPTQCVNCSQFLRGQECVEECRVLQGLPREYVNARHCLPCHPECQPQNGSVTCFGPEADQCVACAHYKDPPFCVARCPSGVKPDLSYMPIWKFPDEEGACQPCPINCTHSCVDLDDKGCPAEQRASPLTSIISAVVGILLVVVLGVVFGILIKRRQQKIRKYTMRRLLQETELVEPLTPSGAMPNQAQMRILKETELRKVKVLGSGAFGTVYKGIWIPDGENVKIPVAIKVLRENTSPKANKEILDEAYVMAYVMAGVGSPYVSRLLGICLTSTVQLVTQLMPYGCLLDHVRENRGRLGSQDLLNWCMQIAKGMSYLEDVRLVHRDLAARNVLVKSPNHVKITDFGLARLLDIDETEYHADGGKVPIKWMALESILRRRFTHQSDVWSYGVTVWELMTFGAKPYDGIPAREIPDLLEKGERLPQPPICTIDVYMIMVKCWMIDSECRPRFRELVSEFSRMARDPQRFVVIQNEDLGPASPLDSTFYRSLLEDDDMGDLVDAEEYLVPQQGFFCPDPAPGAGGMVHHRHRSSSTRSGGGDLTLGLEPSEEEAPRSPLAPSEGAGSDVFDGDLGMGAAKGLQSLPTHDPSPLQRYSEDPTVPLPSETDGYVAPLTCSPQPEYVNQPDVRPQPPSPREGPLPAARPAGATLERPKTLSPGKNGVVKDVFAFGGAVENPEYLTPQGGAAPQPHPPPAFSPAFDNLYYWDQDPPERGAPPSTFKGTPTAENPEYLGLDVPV
UniProt P00533, 25-1210 limits assumed: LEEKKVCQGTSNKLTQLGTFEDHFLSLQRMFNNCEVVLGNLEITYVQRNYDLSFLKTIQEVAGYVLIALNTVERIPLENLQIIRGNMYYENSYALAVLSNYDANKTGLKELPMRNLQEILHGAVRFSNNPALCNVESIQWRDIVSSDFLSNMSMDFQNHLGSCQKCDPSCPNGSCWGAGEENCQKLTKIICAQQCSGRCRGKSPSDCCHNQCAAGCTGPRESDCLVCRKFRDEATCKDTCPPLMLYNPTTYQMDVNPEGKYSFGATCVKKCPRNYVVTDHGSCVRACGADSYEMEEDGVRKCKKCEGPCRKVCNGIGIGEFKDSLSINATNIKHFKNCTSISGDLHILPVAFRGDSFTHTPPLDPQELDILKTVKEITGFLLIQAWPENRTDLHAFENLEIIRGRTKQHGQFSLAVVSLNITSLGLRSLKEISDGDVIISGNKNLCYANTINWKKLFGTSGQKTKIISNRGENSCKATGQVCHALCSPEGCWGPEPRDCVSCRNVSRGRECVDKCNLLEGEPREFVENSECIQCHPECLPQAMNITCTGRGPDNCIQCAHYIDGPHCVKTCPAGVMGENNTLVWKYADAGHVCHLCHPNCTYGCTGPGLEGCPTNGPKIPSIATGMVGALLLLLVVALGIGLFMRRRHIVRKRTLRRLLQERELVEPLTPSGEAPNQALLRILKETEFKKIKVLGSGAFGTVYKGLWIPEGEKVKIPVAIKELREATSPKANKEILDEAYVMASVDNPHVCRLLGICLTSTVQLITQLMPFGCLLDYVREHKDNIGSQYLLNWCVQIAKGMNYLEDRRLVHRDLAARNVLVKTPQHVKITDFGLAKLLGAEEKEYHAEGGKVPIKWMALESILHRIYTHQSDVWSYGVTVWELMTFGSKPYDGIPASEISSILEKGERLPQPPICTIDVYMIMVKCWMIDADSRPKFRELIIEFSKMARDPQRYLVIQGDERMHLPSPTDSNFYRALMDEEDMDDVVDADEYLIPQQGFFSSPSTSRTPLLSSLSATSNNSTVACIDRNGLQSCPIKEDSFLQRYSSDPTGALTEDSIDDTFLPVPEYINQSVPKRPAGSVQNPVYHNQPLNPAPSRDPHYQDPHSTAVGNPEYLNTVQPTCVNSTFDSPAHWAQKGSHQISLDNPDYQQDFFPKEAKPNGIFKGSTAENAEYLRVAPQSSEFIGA
UniProt P00533, 25-1210 T790M/L858R limits assumed: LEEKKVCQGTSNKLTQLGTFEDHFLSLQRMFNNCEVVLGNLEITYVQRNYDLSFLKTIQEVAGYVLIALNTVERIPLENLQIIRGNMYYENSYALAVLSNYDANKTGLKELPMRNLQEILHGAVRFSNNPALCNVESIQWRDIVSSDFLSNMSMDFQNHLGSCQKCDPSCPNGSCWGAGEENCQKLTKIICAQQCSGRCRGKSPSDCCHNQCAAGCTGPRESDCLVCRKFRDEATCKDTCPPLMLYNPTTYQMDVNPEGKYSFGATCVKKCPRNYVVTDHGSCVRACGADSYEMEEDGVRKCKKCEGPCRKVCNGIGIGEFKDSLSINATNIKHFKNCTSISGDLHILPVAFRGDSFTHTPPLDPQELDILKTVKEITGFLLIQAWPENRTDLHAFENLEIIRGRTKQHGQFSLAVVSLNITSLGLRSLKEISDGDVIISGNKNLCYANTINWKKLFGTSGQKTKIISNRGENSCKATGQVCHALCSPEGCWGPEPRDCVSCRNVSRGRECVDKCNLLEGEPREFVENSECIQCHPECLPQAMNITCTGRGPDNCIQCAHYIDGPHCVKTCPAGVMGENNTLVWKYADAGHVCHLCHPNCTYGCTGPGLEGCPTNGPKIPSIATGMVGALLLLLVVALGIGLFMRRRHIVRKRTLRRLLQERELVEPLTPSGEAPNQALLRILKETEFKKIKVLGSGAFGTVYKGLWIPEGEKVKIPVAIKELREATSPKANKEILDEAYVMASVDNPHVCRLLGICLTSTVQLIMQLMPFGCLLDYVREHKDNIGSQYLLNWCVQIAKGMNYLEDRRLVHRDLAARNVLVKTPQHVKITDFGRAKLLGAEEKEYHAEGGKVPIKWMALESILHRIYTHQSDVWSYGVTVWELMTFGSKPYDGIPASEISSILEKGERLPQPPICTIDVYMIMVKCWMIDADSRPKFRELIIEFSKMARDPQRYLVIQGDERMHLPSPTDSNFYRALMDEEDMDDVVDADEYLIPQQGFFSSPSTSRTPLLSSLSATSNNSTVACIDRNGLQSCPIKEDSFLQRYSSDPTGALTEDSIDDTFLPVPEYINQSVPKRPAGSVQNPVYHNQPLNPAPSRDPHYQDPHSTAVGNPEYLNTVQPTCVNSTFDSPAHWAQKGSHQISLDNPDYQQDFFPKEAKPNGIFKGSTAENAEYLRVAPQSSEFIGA
UniProt P00533, with tags, fused parts or gaps DUP771-773: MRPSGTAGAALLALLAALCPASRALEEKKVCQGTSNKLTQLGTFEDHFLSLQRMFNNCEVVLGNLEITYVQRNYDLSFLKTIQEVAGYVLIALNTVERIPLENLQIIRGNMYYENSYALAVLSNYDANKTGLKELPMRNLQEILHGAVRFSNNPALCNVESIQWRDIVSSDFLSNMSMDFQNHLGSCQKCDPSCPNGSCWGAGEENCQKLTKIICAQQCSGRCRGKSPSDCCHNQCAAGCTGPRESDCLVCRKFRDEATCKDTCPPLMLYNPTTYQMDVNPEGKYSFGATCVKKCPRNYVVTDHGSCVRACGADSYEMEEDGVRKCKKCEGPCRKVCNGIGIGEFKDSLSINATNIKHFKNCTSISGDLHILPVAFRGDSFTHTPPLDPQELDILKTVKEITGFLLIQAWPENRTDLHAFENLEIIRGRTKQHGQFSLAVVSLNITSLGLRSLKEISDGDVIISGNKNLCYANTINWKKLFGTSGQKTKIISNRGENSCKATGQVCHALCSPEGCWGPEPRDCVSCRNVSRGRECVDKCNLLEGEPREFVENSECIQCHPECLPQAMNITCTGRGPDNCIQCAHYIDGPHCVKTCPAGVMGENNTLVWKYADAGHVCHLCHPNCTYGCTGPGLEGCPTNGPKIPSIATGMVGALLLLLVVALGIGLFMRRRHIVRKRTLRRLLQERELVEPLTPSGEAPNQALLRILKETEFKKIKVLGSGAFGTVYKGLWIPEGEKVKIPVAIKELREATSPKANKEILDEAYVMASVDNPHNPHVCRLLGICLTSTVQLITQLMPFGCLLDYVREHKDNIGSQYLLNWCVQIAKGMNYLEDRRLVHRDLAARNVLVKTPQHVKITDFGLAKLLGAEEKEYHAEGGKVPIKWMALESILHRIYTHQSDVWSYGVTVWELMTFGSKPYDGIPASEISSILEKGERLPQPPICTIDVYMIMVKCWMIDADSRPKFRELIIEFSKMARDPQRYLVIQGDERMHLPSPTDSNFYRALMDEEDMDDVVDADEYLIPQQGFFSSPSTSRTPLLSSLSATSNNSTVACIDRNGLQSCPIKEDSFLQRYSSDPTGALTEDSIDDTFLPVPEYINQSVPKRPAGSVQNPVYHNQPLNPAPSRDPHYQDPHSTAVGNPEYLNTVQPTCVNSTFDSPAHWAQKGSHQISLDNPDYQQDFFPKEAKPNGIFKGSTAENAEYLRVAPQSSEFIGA

[1] = biological target: Her2 Exon 20 INSYVMA Ba/F3 (Homo sapiens, UniProt P04626, DUP772-775, cells depend on it); assay: Her2 Exon 20 INSYVMA Ba/F3 CellTiter-Glo
Protocol: as §1, §2
(§4) Inhibition is indicated as IC50 [nM] (“−”=not measured). […]

[2] = biological target: EGFR Exon 20 INSNPH Ba/F3 (Homo sapiens, UniProt P00533, DUP771-773, cells depend on it); assay: EGFR Exon 20 INSNPH Ba/F3 CellTiter-Glo
Protocol: as §1, §2, §4

EGFR wt = EGFR wt (Homo sapiens, UniProt P00533); assay: EGFR wt Lance assay; conditions: read-out: EGFR wt Lance IC50
Protocol: (§5) Inhibition is indicated as […] [nM] (“−”=not measured). Compounds having an activity designated as “A” provided an IC50≤100 nM; compounds having an activity designated as “B” provided an 100 nM<IC50≤500 nM; compounds having an activity designated as “C” provided an 500 nM<IC50≤1000 nM; compounds having an activity designated as “D” provided an 1000 nM<IC50≤100000 nM; and compounds having an activity designated as “E” provided an IC50>10000 nM.

H1975 = H1975 CellTiter-Glo; conditions: read-out: H1975 CTG IC50, 72 h compound incubation
Protocol: as §1, §2, §3

HER2 INS YVMA = HER2 INS YVMA (Homo sapiens, UniProt P04626, INS775YVMA); assay: Lance Kinase Activity Assay, HER2 INS YVMA (Her2 Exon 20 INSYVMA Lance); conditions: read-out: Her2 Exon 20 INSYVMA Lance IC50, biochemical Lance assay
Protocol: 1. Measurement of HER2 INS YVMA Kinase Activity
This protocol describes how the Lance Kinase Activity Assay was performed to determine IC50 values of compounds of general formula (I) against HER2 INS YVMA. The principle behind this enzymatic assay is based upon the phosphorylation of the Ulight-peptide substrate. It is detected by using a specific EU-labeled anti-phospho peptide antibody. The binding of the Eu labeled anti-phospho peptide antibody to the phosphorylated ULight labeled peptide gives rise to a FRET-signal.
Binding of an inhibitor to the kinase prevents phosphorylation of the Ulight-substrate, resulting in a loss of FRET. In table 2 is summarized the relevant information for the LANCE assay. […]
For every sample, 8 μl of kinase-substrate mix was transferred into a suitable assay plate (e.g. Corning #3673). […] After a second incubation period of 1 h at room temperature the FRET signal was measured at 340 nm excitation, 665 nm and 615 nm emission (for the ULight-substrate and Eu-AB, respectively) with an Envision spectrophotometer (Perkin Elmer, Waltham, Mass., USA) with 50 μs delay and 300 μs integration time. IC50 values were determined from the sigmoidal dose response curves with the software Quattro Workflow (Quattro GmbH, Munich, Germany).

EGFR T790ML858R = EGFR T790ML858R (Homo sapiens, UniProt P00533, L858R/T790M); assay: EGFR T790ML858R Lance assay; conditions: read-out: EGFR T790M L858R Lance IC50
Protocol: as §5

H1781 = H1781 CellTiter-Glo; conditions: read-out: H1781 CTG IC50; 72 h compound incubation; tested form: TFA
Protocol: as §1, §2, §3

[3] = Metabolic stability in mouse liver microsomes without cofactor NADPH; conditions: 3 μM test compound, 37° C., LC-MS/MS, tested form: TFA
Description: There are two major groups of enzyme reactions catalyzed by drug metabolizing enzymes, the so called Phase I and Phase II reactions. The basic processes in phase I reactions are oxidation, reduction and/or hydrolysis mostly catalyzed by the cytochrome P450 (CYP) family of enzymes. Exploring the metabolic stability of reference 1 we have observed as a major metabolite the hydrolysis of the acrylamide moiety in the presence of mouse liver microsomes with and without the cofactor NADPH.
The following procedures describe the determination of the in vitro Phase I metabolic stability of test compounds using liver microsomes by measuring compound depletion over time. Test compound at the concentration of 3 μM was incubated with the liver microsomes from the mouse species and the experiment was performed without NADPH. The depletion of the test compounds was measured over time up to 50 minutes at 37° C. by LC-MS/MS. Different compounds were tested under these conditions for microsomal stability (see Table 5). Prevention of hydrolysis of the acrylamide moiety was achieved either by the introduction of substituents like a methyl group (as in Example 1) next to the acrylamide moiety or by modifying the secondary acrylamide of reference 1 to a tertiary acrylamide (like Example 55).

| Structure (SMILES) | IC50 (A431) [µM] | GI50 ([1]; read-out: Her2 Exon 20 INSYVMA Ba/F3 CTG IC50, 72 h) [µM] | GI50 ([2]; read-out: EGFR Exon 20 INSNPH Ba/F3 CTG IC50, 72 h) [µM] | IC50 (EGFR wt) [µM] | IC50 (H1975) [µM] | IC50 (HER2 INS YVMA) [µM] | IC50 (EGFR T790ML858R) [µM] | IC50 (A431; tested form: TFA) [µM] | IC50 (H1781) [µM] | GI50 ([1]; read-out: Her2 Exon 20 INSYVMA Ba/F3 CTG IC50, 72 h, tested form: TFA) [µM] | GI50 ([2]; read-out: EGFR Exon 20 INSNPH Ba/F3 CTG IC50, 72 h, tested form: TFA) [µM] | IC50 (EGFR wt; tested form: TFA) [µM] | IC50 (H1975; tested form: TFA) [µM] | IC50 (HER2 INS YVMA; tested form: TFA) [µM] | IC50 (EGFR T790ML858R; tested form: TFA) [µM] | Stability in presence of mouse liver microsomes without cofactor NADPH [% remaining after 50 min] [3] [% remaining after 50 min] |
| --- | --- | --- | --- | --- | --- | --- | --- | --- | --- | --- | --- | --- | --- | --- | --- | --- |
| C=CC(=O)Nc1cc(-c2c(-c3ccc(N4CCN(C)CC4)cc3)[nH]c3ncc(CC(=O)NC)cc23)ccc1C | 1 to 100 | < 0.1 | 1 to 10 | < 0.1 | 1 to 100 | < 0.1 | < 0.1 |  |  |  |  |  |  |  |  |  |
| C=CC(=O)Nc1cc(-c2c(-c3ccc(N4CCN(C)CC4)cc3)[nH]c3nccc(OC)c23)ccc1C |  |  |  |  |  |  |  | 0.1 to 0.5 | 0.1 to 0.5 | < 0.1 | < 0.1 | < 0.1 | < 0.1 | < 0.1 | < 0.1 | >99 |
